# Laboratory results published in PubChem BioAssay AID2551 (National Center for Advancing Translational Sciences (NCATS), 2010).
# Amino acid sequences for entries named in this document (tags omitted). A change or cut given only in a name is not applied to a line headed by its entry.
# UniProt P51450: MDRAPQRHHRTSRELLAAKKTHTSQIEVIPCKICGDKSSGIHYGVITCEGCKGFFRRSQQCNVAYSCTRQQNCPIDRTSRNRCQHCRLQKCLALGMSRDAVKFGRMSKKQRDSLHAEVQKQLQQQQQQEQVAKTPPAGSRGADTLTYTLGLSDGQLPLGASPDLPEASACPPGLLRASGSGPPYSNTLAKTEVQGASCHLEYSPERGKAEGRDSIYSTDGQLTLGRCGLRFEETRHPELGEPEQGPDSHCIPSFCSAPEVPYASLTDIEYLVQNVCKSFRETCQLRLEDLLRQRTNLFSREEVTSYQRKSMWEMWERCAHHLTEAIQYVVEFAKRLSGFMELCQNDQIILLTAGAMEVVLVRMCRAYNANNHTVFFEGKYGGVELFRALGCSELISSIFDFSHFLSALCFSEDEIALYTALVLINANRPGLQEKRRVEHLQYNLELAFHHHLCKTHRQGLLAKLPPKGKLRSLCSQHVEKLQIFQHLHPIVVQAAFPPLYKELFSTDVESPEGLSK
# Hit rate of the full screen: of about 310,000 compounds, about 17,000 (5.5%) were called active. The shares of active, inactive and inconclusive entries below differ from those in the screen. The call rests on the fitted dose curve; in most records, active means well fitted inhibition curve with a large enough effect; inconclusive means small, poorly fitted or top-dose-only effect, or effect the other way; inactive means no such curve, though single readings can be large or run the other way. Potencies beside an inconclusive call are fits to weak or partial responses and may not hold up.
# Molecular target: Nuclear receptor ROR-gamma (Mus musculus) (UniProt P51450)
# Test: qHTS for inhibitors of ROR gamma transcriptional activity; further: nearly all actives have a fitted effect of over 60% in size
# Settings: Drosophila S2 Gal4-RORgamma UAS-luciferase reporter, 20 h; activity change, negative = inhibition: at 53.6 µM (top of the series)
# Procedure, shortened: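 Luciferase reporter read in Schneider cells carrying Gal4-RORγ (mouse) and UAS-Photinus luciferase; cells given compound 1 h before 700 uM copper sulfate induction, then incubated 20 h at ambient temperature.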
# On the % scale 0 is the no-effect control and ±100 the full control effect; potency means the concentration at half of the fitted maximal effect.
Compound,Potency,"activity change, negative = inhibition"
CC1=C(C(=O)NC2CCCc3c2cnn3-c2cccc(C)c2C)OCCO1 (stereo not given),"inconclusive: 1.58 µM [activator, partial curve]",–
Cc1cccc(CN2CCC(C(=O)Nc3cccc(-c4cccc(F)c4)c3)CC2)n1,active: 7.08 µM,–
COc1cccc2c1CCc1c-2nc2ccccc2c1C(=O)O,"inconclusive: 17.8 µM [inhibitor, partial curve, poor fit]",–
COc1ccc(CNC(=O)/C(C#N)=C2\N=C(NC(=O)c3cccs3)c3ccccc32)cc1,–,inactive: 33.2%
CSc1ccc(/C=N/Nc2ccc(Cl)c(C(=O)O)c2)cc1,"inconclusive: 10 µM [inhibitor, partial curve]",–
COc1cccc(N2CCN(C(=S)Nc3cc(C)cc(C)c3)CC2)c1,active: 3.98 µM,–
CCCN1CCC(NCc2cn(C)nc2-c2ccc(Oc3ccccc3)cc2)CC1,"inconclusive: 15.8 µM [inhibitor, single point]",–
Nc1cccc(-c2cn3cccnc3n2)c1,"inconclusive: 12.6 µM [activator, single point]",–
COc1ccc(/C=N/NC(=O)COc2ccc(Cl)cc2Cl)cc1Cn1nc(C)cc1C,"inconclusive: 35.5 µM [inhibitor, single point]",–
Cn1c(SCC(=O)Nc2ccccc2F)nc2c(c1=O)SCC2,"inconclusive: 0.316 µM [activator, partial curve, poor fit]",–
CC(C)(C)c1ccc(OCc2nc(-c3ccccn3)no2)c(Br)c1,"inconclusive: 0.501 µM [activator, full curve, poor fit]",–
Cc1cccc(-n2ncc(C#N)c2N)c1,"inconclusive: 12.6 µM [inhibitor, partial curve, poor fit]",–
CC(C)(C)OC(=O)N/N=C/c1cn(-c2ccccc2)nc1-c1cccnc1,"inconclusive: 35.5 µM [activator, single point]",–
COc1ccc(S(=O)(=O)N2CCCC2c2cccs2)cc1 (stereo not given),–,inactive: 29.8%
CCc1c(C(=O)NNC(=S)NCc2ccccc2)csc1C,active: 6.31 µM,–
O=C(NCC(c1cccs1)N1CCOCC1)c1ccccc1NS(=O)(=O)c1ccc(Cl)cc1 (stereo not given),"inconclusive: 25.1 µM [activator, single point]",–
CCOC(=O)C(C(=O)Nc1cccc(C)n1)C1CCCCC1 (stereo not given),–,inactive: -4.95%
CN(CC1CCCO1)S(=O)(=O)c1ccc(C(=O)Nc2ccc([N+](=O)[O-])cc2)cc1 (stereo not given),–,inactive: 13.7%
COc1ccccc1NS(=O)(=O)c1ccc(NN=C2CCCCC2)c([N+](=O)[O-])c1,"inconclusive: 14.1 µM [activator, single point]",–
CC(=O)C1C(=O)c2c(cccc2[N+](=O)[O-])C1=Nc1ccc(S(N)(=O)=O)cc1 (stereo not given),–,inactive: -17%
CS(=O)(=O)N(CCc1ccccc1)CC(=O)N1CCN(c2ccccc2)CC1,"inconclusive: 0.447 µM [inhibitor, single point]",–
CSc1nc2n(n1)C(C)C1=C(CCCC1=O)N2 (stereo not given),–,inactive: 7.55%
COc1ccc(-c2nn(-c3ccccc3)cc2/C=N/O)cc1OC,active: 1 µM,–

Compound,Potency,"activity change, negative = inhibition"
CCCn1c(SCC(=O)c2cc(C)n(-c3ccc4c(c3)OCO4)c2C)n[nH]c1=O,"inconclusive: 22.4 µM [activator, single point]",–
COc1ccc(/C=N/Nc2cc(C)nc3ccccc23)cc1,"inconclusive: 3.16 µM [inhibitor, single point]",–
Cc1ccc(/C=C2\CC(C)CC3=C2NC(=S)NC3c2ccc(C)cc2)cc1 (stereo not given),active: 3.16 µM,–
CCC(C)/C(C)=N/NC(=O)c1ccc(COc2ccc(Cl)c(C)c2)cc1 (stereo not given),"inconclusive: 35.5 µM [inhibitor, single point]",–
COc1ccccc1-c1ccc2ncnc(N3CCOCC3)c2c1,"inconclusive: 8.91 µM [activator, partial curve]",–
O=C(NC(=S)Nc1ccccc1Br)c1ccco1,"inconclusive: 25.1 µM [inhibitor, single point]",–
Cc1ccc(Nc2nc(-c3cccs3)cs2)nc1,active: 11.2 µM,–
O=C(Cc1noc2ccccc12)Nc1ccc2ccccc2c1,"inconclusive: 3.98 µM [activator, partial curve]",–
O=C(CCc1nc(-c2ccccc2F)no1)Nc1ccc(Oc2ccccc2)cc1,"inconclusive: 35.5 µM [inhibitor, single point]",–
CC(C)NC[C@H](O)c1ccc2ccccc2c1,"inconclusive: 35.5 µM [activator, single point]",–
Cc1cc(/C=N/NC(N)=S)c(O)c(/C=N/NC(N)=S)c1,active: 0.199 µM,–
COc1ccc(-n2c(C)cc(C(=O)COc3ccc(C)nc3[N+](=O)[O-])c2C)cc1,"inconclusive: 17.8 µM [activator, partial curve]",–
N#Cc1nc(COc2ccccc2F)oc1NCCc1ccccc1,"inconclusive: 14.1 µM [activator, single point]",–
COc1ccc(OCc2cc(C(=O)NC(C)c3cnn(C)c3)no2)c(Cl)c1 (stereo not given),"inconclusive: 11.2 µM [activator, partial curve]",–
O=[N+]([O-])c1ccc(N2CCN(c3ccccc3)CC2)cc1,"inconclusive: 0.112 µM [activator, full curve, poor fit]",–
CCCN(Cc1ccccc1)C(=S)NC(=O)c1ccccc1[N+](=O)[O-],active: 0.355 µM,–
CN(C)c1ccc(C(=O)/C=C/c2cccnc2)cc1,"inconclusive: 35.5 µM [inhibitor, single point]",–
CC1=NN(c2ccc(Cl)c(C(=O)O)c2)C(=O)/C1=C/c1ccc(-c2ccccc2[N+](=O)[O-])o1,"inconclusive: 28.2 µM [activator, single point]",–
CCCCOc1ccc(C(C)(O)CCN2CCOCC2)cc1 (stereo not given),"inconclusive: 35.5 µM [inhibitor, single point]",–
Cc1ccsc1/C=N/Nc1cccc(C(=O)O)c1,"inconclusive: 8.91 µM [inhibitor, partial curve]",–
CCc1c(C)nc2cc(-c3cc(OC)cc(OC)c3)nn2c1N1CCCC1,active: 7.08 µM,–
O=C(CSc1nccn1-c1ccc(Cl)cc1)Nc1ccc2c(c1)OCO2,"inconclusive: 31.6 µM [inhibitor, single point]",–

# A second format for some results above.
Compound	Potency	activity change, negative = inhibition
CCOC(=O)C(C(=O)Nc1cccc(C)n1)C1CCCCC1 (stereo not given)	–	inactive: -4.95%
COc1ccc(OCc2cc(C(=O)NC(C)c3cnn(C)c3)no2)c(Cl)c1 (stereo not given)	inconclusive: 11.2 µM [activator, partial curve]	–
